These results are taken from publication PMC5853832.

Chains of the proteins cited; added tags and fusions are not shown.
UniProt P45983: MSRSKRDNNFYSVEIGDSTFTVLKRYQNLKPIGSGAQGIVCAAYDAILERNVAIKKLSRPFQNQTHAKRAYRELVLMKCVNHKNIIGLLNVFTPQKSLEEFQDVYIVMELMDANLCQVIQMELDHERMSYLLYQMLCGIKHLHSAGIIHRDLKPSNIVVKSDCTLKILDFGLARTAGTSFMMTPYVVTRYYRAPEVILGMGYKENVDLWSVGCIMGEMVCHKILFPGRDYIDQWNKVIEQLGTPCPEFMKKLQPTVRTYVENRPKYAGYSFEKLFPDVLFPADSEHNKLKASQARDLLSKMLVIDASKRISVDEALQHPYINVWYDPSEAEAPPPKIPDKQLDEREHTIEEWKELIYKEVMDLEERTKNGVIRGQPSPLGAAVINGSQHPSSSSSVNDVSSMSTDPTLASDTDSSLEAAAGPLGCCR

No constants are given. Whether binding was seen depends on the method and setting. In cells and extracts the contact can be indirect. Some binding calls cover weakened binding; strength is not graded here. Sequences can lack the tags named with a protein.

Assay [1] deals with HA-tagged c-Jun N-terminal Kinase 1 (JNK1) (UniProt P45983). The assay is described as follows: condition: only cells treated with 0.5 M sorbitol for 30 min (JNK activated); co-IP; as a1, but cells treated with 0.5 M sorbitol for 30 min (osmotic shock, JNK activated) before lysis; anti-HA immunoprecipitate blotted with anti-Flag.
The target is the same in assay [2]. The assay is described as follows: co-IP; HEK-293 cells co-transfected with HA-JNK and Flag-MS1, left untreated; lysate immunoprecipitated with anti-HA and Protein-A Sepharose, 3 h at 4°C, washed three times with lysis buffer (137 mM NaCl, 1% Triton X-100, pH 7.4); blotted with anti-Flag.

B1: Flag-tagged Myocyte Stress Protein 1 (MS1) (protein, UniProt Q8K4K7 1-375)
chain: MAPGETEREAGPAKSALQKVRRATLVINLARGWQQWANENSTRQAQEPAGWLPGATQDLPHTPKEPGPRQHAPKPPSPKPDGDREGRGSEEATEVSHIKRKEVTRTVVSKAYERGGDVNYLSHRYEHDGGVSEAVQPDNDIDRILLSHDSPTRRRKCTNLVSELTKGWKVMEQEEPKWKSDSIDTEDSGYGGDMEERPEQDVAQVAAARIKRPLHSQANRYSETLNCKAHRKYSQVDNLKGRWQQWADEHIQSQKLNPFSDEFDYDLAMSTRLHKGDEGYGRPKEGSKTAERAKRAEEHIYREIMELCFVIRTMARHRRDGKIQVTFGELFDRYVRISDKVVGILMRARKHGLVHFEGEMLWQGKDDHVVITLLE
On to B1, for which the figures for the binding entry in assay [1] and in assay [2] were “no binding” and “binds”, respectively.
